PubChem BioAssay AID1259331, Drosophila RNAi Screening Center – 2017
This is an unselected part of about 3,100 reagents tested. 126 of all reagents (4.1%) count as active. 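Calls are per reagent; zinc was so toxic that few knock-downs lowered ATP further, so most hits raise ATP.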 Raw values vary from plate to plate and are shown uncorrected. Names joined by + are all predicted targets of the reagent. The record does not give: the amount of reagent.

- Screen: 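Knock-downs that alter ATP level after a high zinc chloride dose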 (primary screen)
- System: Drosophila S2R+ cells
- Reagent: long dsRNA against Drosophila genes
- Time to read-out: 5 days (4 days knock-down, then 1 day zinc)
- Treatment: zinc chloride at 15 mM final level for 1 day
- Read-out: 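Luminescent ATP assay standing in for viability; Z score is the mean over three replicate plates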
- Scale: mean Z score: higher = more ATP than other wells, better survival under zinc; ATP luminescence: higher = more ATP, more viable cells
- Call rule: 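a reagent is called a hit when its Z score is above 1.5 or below -1.5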
- Meaning of the calls: active = hit, ATP up or down; inactive = not a hit

The first 2 entries, ahead of the listing:
gene	DRSC id	mean Z score	ATP luminescence, replicate 1	ATP luminescence, replicate 2	activity call
SMSr (Sphingomyelin synthase related)	DRSC10999	0.0532	81882	57700	inactive
CG10019	DRSC24959	-0.357	39422	54990	inactive

The list itself, from the first entry:
gene	DRSC id	mean Z score	ATP luminescence, replicate 1	ATP luminescence, replicate 2	activity call
SMSr (Sphingomyelin synthase related)	DRSC10999	0.0532	81882	57700	inactive
CG10019	DRSC24959	-0.357	39422	54990	inactive
bw (brown)	DRSC04005	-0.169	38487	40948	inactive
bw (brown)	DRSC04677	-0.0637	29222	33662	inactive
Lfg + asRNA:CR43468	DRSC06853	-0.514	64199	64189	inactive
kkv (krotzkopf verkehrt)	DRSC12315	0.227	37519	30573	inactive
CG11155	DRSC17184	-0.5	69052	53450	inactive
CG11155	DRSC17205	0.378	50229	50315	inactive
CG11155	DRSC29324	0.265	66720	64216	inactive
CG10182	DRSC14202	-0.0699	34759	53927	inactive
pasi2 (pasiflora 2)	DRSC16380	-0.342	41239	55728	inactive
pasi2 (pasiflora 2)	DRSC39713	1.54	76719	84598	active
CG14606	DRSC12550	-0.54	59860	51770	inactive
rasp	DRSC08191	0.0585	72500	64490	inactive
rasp	DRSC39831	0.233	59620	59391	inactive
CG44098	DRSC12327	-0.24	69704	56842	inactive
CG44098	DRSC23643	-0.351	53893	58111	inactive
CG44098	DRSC24166	0.334	64833	68281	inactive
bon + CG15923	DRSC39557	-0.541	54150	41462	inactive
CG31445	DRSC14443	-0.159	41801	46023	inactive
CG31445	DRSC28642	-0.485	66771	40828	inactive
OtopLa (Otopetrin-like a)	DRSC23226	-0.12	47942	44960	inactive
OtopLa (Otopetrin-like a)	DRSC29861	0.206	53756	48358	inactive
CG14440	DRSC23008	-0.212	48286	42662	inactive
CG14440	DRSC25806	-0.137	54510	50995	inactive
Trpm (Transient receptor potential cation channel, subfamily M)	DRSC06629	0.0305	31605	33404	inactive
Trpm (Transient receptor potential cation channel, subfamily M)	DRSC27597	0.0765	57837	63687	inactive
Trpm (Transient receptor potential cation channel, subfamily M)	DRSC29042	-1	49092	42662	inactive
Osi18 (Osiris 18)	DRSC12181	-0.104	75090	59380	inactive
shakB (shaking B)	DRSC20585	0.119	42002	43318	inactive
shakB (shaking B)	DRSC22817	-0.46	41462	42245	inactive
shakB (shaking B)	DRSC26262	-0.0465	56325	54167	inactive
CG1801	DRSC20556	0.118	41874	44325	inactive
Zip99C (Zinc/iron regulated transporter-related protein 99C)	DRSC16320	-0.432	38668	42955	inactive
CG32320	DRSC21514	0.0119	49812	50189	inactive
CG32320	DRSC28106	-0.784	55407	34729	inactive
CG4645	DRSC19907	1.85	71093	61938	active
CG4645	DRSC24802	0.565	60083	64456	inactive
CG3803	DRSC04420	-0.0389	43777	39877	inactive
CG46441	DRSC15561	-0.586	37482	39976	inactive
CG46441	DRSC24659	-0.0469	58557	62821	inactive
CG33969	DRSC11777	-0.123	42354	43145	inactive
Or83c (Odorant receptor 83c)	DRSC12359	-0.502	67372	52332	inactive
Or83c (Odorant receptor 83c)	DRSC39535	-0.592	43931	46089	inactive
CG15221	DRSC19659	0.0719	59876	74764	inactive
CG8389	DRSC22855	-0.0881	47600	43982	inactive
CG8389	DRSC28233	0.169	58866	69237	inactive
CG7912	DRSC16343	0.0123	63999	68555	inactive
Gr94a (Gustatory receptor 94a)	DRSC13597	0.164	38685	61832	inactive
Gr94a (Gustatory receptor 94a)	DRSC39563	-0.119	60375	55625	inactive
mbo (members only)	DRSC16123	1.69	63221	66285	active
mbo (members only)	DRSC39478	0.941	69927	39525	inactive
SiaT (Sialyltransferase)	DRSC04494	-0.457	42079	43999	inactive
SiaT (Sialyltransferase)	DRSC39665	-0.0653	61592	56191	inactive
CG11438	DRSC11660	0.149	71591	63221	inactive
CG11438	DRSC36909	0.947	58969	55230	inactive
Strn-Mlck (Stretchin-Mlck)	DRSC05032	-0.397	27765	28742	inactive
Strn-Mlck (Stretchin-Mlck)	DRSC07471	-0.834	62947	51321	inactive
Strn-Mlck (Stretchin-Mlck)	DRSC37023	-0.297	43742	42730	inactive
Ir93a (Ionotropic receptor 93a)	DRSC15212	0.336	46280	57099	inactive
Ir93a (Ionotropic receptor 93a)	DRSC28149	0.304	59620	56482	inactive
CG14195	DRSC19550	-0.0172	45920	44240	inactive
CG14195	DRSC39887	1.3	78348	77028	inactive
CNMaR (CNMamide Receptor)	DRSC08992	-0.424	36302	39062	inactive
CNMaR (CNMamide Receptor)	DRSC10224	-0.197	72903	58421	inactive
CG5104	DRSC11765	-0.508	71760	52641	inactive
CG5104	DRSC39641	0.0217	62535	56636	inactive
CG10051	DRSC05959	5.54	1.92e5	1.81e5	active
